No constants are given. Whether binding was seen depends on the method and setting.
Molecular target: catalase from bovine liver (bovine) (UniProt P00432)
Assay: self-interaction chromatography; the same protein immobilised and injected; pH 4.0 (and pH 5.0 for con A), NaCl below 0.30 M, 20 mM sodium acetate buffer, 0.5 mL/min, 10 uL injections; both purified

B1: catalase from bovine liver (enzyme, UniProt P00432 1-527, looked up)
chain: MADNRDPASDQMKHWKEQRAAQKPDVLTTGGGNPVGDKLNSLTVGPRGPLLVQDVVFTDEMAHFDRERIPERVVHAKGAGAFGYFEVTHDITRYSKAKVFEHIGKRTPIAVRFSTVAGESGSADTVRDPRGFAVKFYTEDGNWDLVGNNTPIFFIRDALLFPSFIHSQKRNPQTHLKDPDMVWDFWSLRPESLHQVSFLFSDRGIPDGHRHMNGYGSHTFKLVNANGEAVYCKFHYKTDQGIKNLSVEDAARLAHEDPDYGLRDLFNAIATGNYPSWTLYIQVMTFSEAEIFPFNPFDLTKVWPHGDYPLIPVGKLVLNRNPVNYFAEVEQLAFDPSNMPPGIEPSPDKMLQGRLFAYPDTHRHRLGPNYLQIPVNCPYRARVANYQRDGPMCMMDNQGGAPNYYPNSFSAPEHQPSALEHRTHFSGDVQRFNSANDDNVTQVRTFYLKVLNEEQRKRLCENIAGHLKDAQLFIQKKAVKNFSDVHPEYGSRIQALLDKYNEEKPKNAVHTYVQHGSHLSAREKANL
notes: catalase from bovine liver, MW 250 kD, pI 5.4; Immobilised copy is coupled to Toyopearl AF-Amino-650M particles with EDC and NHS; source: bought: Sigma Aldrich (C9322)
binding: no binding (condition: pH 4.0, NaCl below 0.30 M)
